Results taken from US6380165B1, “Immunological advanced glycation endproduct crosslink” (The Picower Institute for Medical Research, priority 1997, dated 2002).
For at least one compound, name, drawing or mass did not settle the structure.

Tested on: polyclonal anti-AGE antibody “RU”
Experiment: anti-AGE antibody-based competitive ELISA to measure AGE content (AGE-BSA as absorbed antigen)
Format: binding, rabbit
Details: FIG. 1
Source text: For comparison purposes, the reactivity of FFI, CML, AFGP, pentosidine and cyclic pentosidine, and ligands with related epitope structure, such as N^α-Z-arg-lys, N^α-Z-arg-lys-AP, an imidazolium adduct, a pyrimidinium adduct, histidine, and lys-his, were studied. ELISA competition curves for the polyclonal anti-AGE antibody “RU” followed the methods described by Makita et al. (J. Biol. Chem. 267:1992, 1992). Assays employed glucose-derived, AGE-BSA as the absorbed antigen. […]
This example illustrates the discovery and isolation of the AGE of formula I. The dipeptide N^α-Z-arg-lys was selected as a target, because a close association of the arginine and lysine residues provides a significant proximity effect that promotes crosslink formation. […] Each fraction was isolated, concentrated, and analyzed for its reactivity with anti-AGE antibody by ELISA (Makita et al., J. Biol Chem. 267:1992, 1992). Briefly, HPLC fractions and purified compounds were analyzed by an AGE-specific ELISA following methods described previously (Makita et al., J. Biol. Chem. 267:1992, 1992). […] The unbound antibodies were removed by extensive washing and bound antibodies were detected by incubation with-nitrophenyl phosphate (pNPP) substrate for 30-60 min, and recording the optical density at 405 nm by an ELISA reader (EL309, Bio-Tek Instruments Inc., Burlington, Vt.). […]

O=C(NC1CCCNC2=NC(=CNCCCCC(C(=O)O)NC1=O)C(CC(O)CO)=N2)OCc1ccccc1 (stereo not drawn) [ALI, Arg-Lys-Imidazole]
50% inhibition in anti-AGE antibody-based competitive ELISA (RU antibody, glucose-derived AGE-BSA as absorbed antigen): 500 nmol
crossreactivity / reactivity with the RU anti-AGE antibody (competitive ELISA, AGE-BSA as absorbed antigen): highly reactive
